In PMC9756341 (Journal of the American Chemical Society, 2022) one finds isolated mass data, which are given here for 23 substances.

[ ]: non-standard residue; d: D form. The star is where a group is joined. ACC = NC(=O)Cc1cc(=O)oc2cc(N*)ccc12; Phg = N[C@H](C(=O)O)c1ccccc1; Cbz = O=C(OCc1ccccc1)*

The nature of data set [1]: general procedure: Fmoc solid-phase peptide synthesis; 2-chlorotrityl chloride resin. As to conditions: whole synthesis, scale 0.1 mmol.
Data set [2] can be described thus: general procedure: Fmoc solid-phase peptide synthesis; rink amide resin. As to conditions: whole synthesis, scale 0.03 mmol.

Turning to “Biotin-Ahx-DhPhe-Cha-Dht-Phg(4-guan)-DPP”, the isolated mass in data set [1] came to 1.9 mg.

In data set [1], Yn-Asp(Chx)-Cha-His(Z)-Phg(4-guan)-DPP showed an isolated mass of 1.2 mg.

The substance Ac-KHLF-{ACC} came in with an isolated mass in data set [2] of 7.5 mg.

“Biotin-Ahx-DPhe-Cha-Ser(Ac)-Phg(4-guan)-DPP” yielded an isolated mass in data set [1] of 5.1 mg.

Consider Yn-Thr(Z)-Ala-Ser(Z)-Phg(4-guan)-DPP, for which the isolated mass in data set [1] is 1.5 mg.

Take Yn-Thr(Z)-Chg-His(Z)-Phg(4-guan)-DPP: the isolated mass in data set [1] came out at 1.1 mg.

In the case of “Biotin-Ahx-DPhe-Dlys-Dht-Phg(4-guan)-DPP”, the isolated mass in data set [1] came out at 3.4 mg.

The substance Ac-DPhe-Ser(Z)-Dht-Arg-ACC yielded an isolated mass in data set [2] of 7 mg.

Turning to Yn-Thr(Z)-Ala-Dht-Phg(4-guan)-DPP, in data set [1], the isolated mass was 2.2 mg.

In turn, Biotin-Ahx-DPhe-Cha-Dht-Phg(4-guan)-DPP registered an isolated mass in data set [1] of 4.3 mg.

In the case of Ac-T(Cbz)A[Phg]R-{ACC}, the isolated mass in data set [2] is 3.9 mg.

Yn-DPhe-Ser(Z)-Dht-Arg-DPP yielded an isolated mass in data set [1] of 5 mg.

Take Yn-Thr(Z)-Ala-Phg-Phg(4-guan)-DPP: the isolated mass in data set [1] amounted to 1.5 mg.

Substance Biotin-Ahx-DPhe-Cha-Dht-Arg-DPP registered an isolated mass in data set [1] of 5.7 mg.

Yn-Thr(Z)-Ala-Dab(Z)-Phg(4-guan)-DPP returned an isolated mass in data set [1] of 2.0 mg.

“Biotin-Ahx-Thr(Z)-Cha-Dht-Phg(4-guan)-DPP”: the isolated mass in data set [1] is on record as 3.2 mg.

On to Yn-DPhe-Ser(Z)-Dht-DArg-DPP, for which the isolated mass in data set [1] is 4 mg.

The substance Yn-Thr(Z)-Cha-His(Z)-Phg(4-guan)-DPP gave an isolated mass in data set [1] of 4.6 mg.

In data set [1], “Biotin-Ahx-Thr(Z)-Ala-Dht-Phg(4-guan)-DPP” registered an isolated mass of 6 mg.

In turn, Yn-Thr(Z)-Ala-Tyr(Z)-Phg(4-guan)-DPP came in with an isolated mass in data set [1] of 1.8 mg.

In the case of Biotin-Ahx-DPhe-Ser(Z)-Dht-DArg-DPP, in data set [1], the isolated mass was determined as 6.7 mg.

In data set [1], Biotin-Ahx-DPhe-Lys-Dht-Phg(4-guan)-DPP came in with an isolated mass of 8.7 mg.

In data set [1], Biotin-Ahx-DPhe-Ser(Z)-Dht-Arg-DPP registered an isolated mass of 5.3 mg.
